Assay results reported in PMC11447025.
No constants are given. Whether binding was seen depends on the method and setting. In cells and extracts the contact can be indirect. Some binding calls cover weakened binding; strength is not graded here. Where a sequence is shown, tags or fusion partners need not be part of it.

By UniProt entry, the sequences of proteins in these tests, tags left out.
UniProt P11166: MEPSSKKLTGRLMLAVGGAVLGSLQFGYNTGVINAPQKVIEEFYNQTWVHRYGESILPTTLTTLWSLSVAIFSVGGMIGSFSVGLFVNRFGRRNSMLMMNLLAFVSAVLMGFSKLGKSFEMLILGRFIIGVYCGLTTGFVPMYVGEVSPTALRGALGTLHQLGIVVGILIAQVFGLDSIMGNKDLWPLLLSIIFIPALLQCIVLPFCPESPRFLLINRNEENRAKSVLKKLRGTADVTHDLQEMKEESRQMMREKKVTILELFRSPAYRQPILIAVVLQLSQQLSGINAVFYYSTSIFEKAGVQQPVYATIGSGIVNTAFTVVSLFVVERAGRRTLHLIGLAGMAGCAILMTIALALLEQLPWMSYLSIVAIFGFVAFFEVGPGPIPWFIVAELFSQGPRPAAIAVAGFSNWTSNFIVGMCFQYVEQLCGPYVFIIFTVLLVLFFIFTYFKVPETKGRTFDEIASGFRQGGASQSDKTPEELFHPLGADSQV

Molecular target: T1, CMTM6-HA (UniProt Q9NX76)
T1 sequence: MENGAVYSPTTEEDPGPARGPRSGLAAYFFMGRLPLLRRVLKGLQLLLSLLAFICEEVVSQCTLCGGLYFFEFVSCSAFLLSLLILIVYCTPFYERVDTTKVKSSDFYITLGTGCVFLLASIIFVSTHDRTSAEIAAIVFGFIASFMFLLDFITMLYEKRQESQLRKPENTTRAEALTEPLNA
Test: co-IP; HCT116 cells coexpressing CMTM6-HA and Rab11-FLAG; lysis buffer with 0.5% NP-40; anti-HA (12CA5) antibody and Protein G Sepharose beads pull down CMTM6-HA; WB for Glut1 and Rab11-FLAG

- binding: binds
Substance: Glucose transporter 1 (Glut1), endogenous in HCT116 cells (from UniProt P11166 1-492)
